Where a name gives a salt, the structure may show the parent alone. Read-outs that look alike come from different tables or passages of the source.
Experiment: Fluorescent coating of hydroxyapatite

O=P([O-])([O-])Cn1c2ccccc2c2ccccc21.[Na+].[Na+] [di sodium N-carbazolylmethylphosphonate]
fluorescent coating on hydroxyapatite: fluorescent coating had been applied

O=P(O)(O)COc1ccc(-c2c3nc(c(-c4ccc(OCP(=O)(O)O)cc4)c4ccc([nH]4)c(-c4ccc(OCP(=O)(O)O)cc4)c4nc(c(-c5ccc(OCP(=O)(O)O)cc5)c5ccc2[nH]5)C=C4)C=C3)cc1 [octa-sodium salt of Example 29, 5, 10, 15, 20-tetraphenyl-21H, 24H porphine-p,p′,p″,p′″tetra oxymethanophosphonic acid]
fluorescent coating on hydroxyapatite (5 ml, 1 mM solution, hydroxyapatite 100 mg, room temperature 10 h, washed with water): fluorescent coating had been applied

O=P(O)(O)Cn1c2ccccc2c2ccccc21 [Example 7, N-carbazoylymethylphosphonic acid]
fluorescent layer on hydroxyapatite (aqueous solution 100 μM applied with warm air drying, powder or annealed hydroxyapatite, washed with water): A fluorescent layer had been deposited on the surface
